Consider 2 molecules from article PMC9465040.

The assay addresses RrTTG1, pXY106 (nYFP) fusion (Rosa roxburghii). In words: split reporter; BiFC: cYFP (pXY105) and nYFP (pXY106) fusions transiently expressed in Nicotiana benthamiana leaves via Agrobacterium EHA105 mixed 1:1; YFP fluorescence by confocal microscopy after 48 h.

Results are given in words; binding and its absence hold for the method and conditions named. In cells and extracts the contact can be indirect. Binding can be weak; no strength is given. Where a sequence is shown, tags or fusion partners need not be part of it.

B1: AtGL3, pXY105 (cYFP) fusion (protein, UniProt Q9FN69 1-637)
chain: MATGQNRTTVPENLKKHLAVSVRNIQWSYGIFWSVSASQSGVLEWGDGYYNGDIKTRKTIQASEIKADQLGLRRSEQLSELYESLSVAESSSSGVAAGSQVTRRASAAALSPEDLADTEWYYLVCMSFVFNIGEGMPGRTFANGEPIWLCNAHTADSKVFSRSLLAKSAAVKTVVCFPFLGGVVEIGTTEHITEDMNVIQCVKTSFLEAPDPYATILPARSDYHIDNVLDPQQILGDEIYAPMFSTEPFPTASPSRTTNGFDQEHEQVADDHDSFMTERITGGASQVQSWQLMDDELSNCVHQSLNSSDCVSQTFVEGAAGRVAYGARKSRVQRLGQIQEQQRNVKTLSFDPRNDDVHYQSVISTIFKTNHQLILGPQFRNCDKQSSFTRWKKSSSSSSGTATVTAPSQGMLKKIIFDVPRVHQKEKLMLDSPEARDETGNHAVLEKKRREKLNERFMTLRKIIPSINKIDKVSILDDTIEYLQELERRVQELESCRESTDTETRGTMTMKRKKPCDAGERTSANCANNETGNGKKVSVNNVGEAEPADTGFTGLTDNLRIGSFGNEVVIELRCAWREGVLLEIMDVISDLHLDSHSVQSSTGDGLLCLTVNCKHKGSKIATPGMIKEALQRVAWIC
For B1, the binding entry was “binds”.

B2: AtEGL3, pXY105 (cYFP) fusion (protein, UniProt Q9CAD0 1-596)
chain: MATGENRTVPDNLKKQLAVSVRNIQWSYGIFWSVSASQPGVLEWGDGYYNGDIKTRKTIQAAEVKIDQLGLERSEQLRELYESLSLAESSASGSSQVTRRASAAALSPEDLTDTEWYYLVCMSFVFNIGEGIPGGALSNGEPIWLCNAETADSKVFTRSLLAKSASLQTVVCFPFLGGVLEIGTTEHIKEDMNVIQSVKTLFLEAPPYTTISTRSDYQEIFDPLSDDKYTPVFITEAFPTTSTSGFEQEPEDHDSFINDGGASQVQSWQFVGEEISNCIHQSLNSSDCVSQTFVGTTGRLACDPRKSRIQRLGQIQEQSNHVNMDDDVHYQGVISTIFKTTHQLILGPQFQNFDKRSSFTRWKRSSSVKTLGEKSQKMIKKILFEVPLMNKKEELLPDTPEETGNHALSEKKRREKLNERFMTLRSIIPSISKIDKVSILDDTIEYLQDLQKRVQELESCRESADTETRITMMKRKKPDDEEERASANCMNSKRKGSDVNVGEDEPADIGYAGLTDNLRISSLGNEVVIELRCAWREGILLEIMDVISDLNLDSHSVQSSTGDGLLCLTVNCKHKGTKIATTGMIQEALQRVAWIC
Turning to B2, the binding result was “binds”.
